In publication PMC7187271 one finds binding data, which are given here for 3 molecules.

Holding throughout (test): affinity purification with mass spectrometry; biotin-labeled peptide with lysate of VEGF-treated/untreated Sca1+-VPCs, streptavidin beads, eluate on SDS-PAGE followed by proteomics analysis (pilot study); only the target purified
In experiment [1] the target is T1, biotin-labeled 7Aa peptide (7-aa peptide with a serine substituted with an alanine, MHAPGAD) (mouse).
T1 sequence (peptide, biotin on the N-terminus): MHAPGAD

Experiment [2] deals with T2, biotin-labeled 7-aa peptide 7A (MHSPGAD) (mouse).
T2 sequence (peptide, biotin on the N-terminus): MHSPGAD

The target in experiment [3] is T3, biotin-labeled 7Ap peptide (MH[pSer]PGAD, synthetically phosphorylated serine residue) (mouse).
T3 sequence (peptide, phosphoserine (MH[pSer]PGAD); biotin on the N-terminus): MHSPGAD

Results are given in words; binding and its absence hold for the method and conditions named. Binding seen in cells or lysates may run through a third protein. A yes stands for co-enrichment or nearness to the bait. Other partners may have been found.

B1: phosphorylated MEKK1 (phospho-MEKK1 Ser393) (enzyme, UniProt P53349 1-1493)
chain: MAAAAGDRASSSGFPGAAAASPEAGGGGGGGGALQGSGAPAAGAAGLLREPGSAGRERADWRRRQLRKVRSVELDQLPEQPLFLAAASPPCPSTSPSPEPADAAAGASRFQPAAGPPPPGAASRCGSHSAELAAARDSGARSPAGAEPPSAAAPSGREMENKETLKGLHKMEDRPEERMIREKLKATCMPAWKHEWLERRNRRGPVVVKPIPIKGDGSEVNNLAAEPQGEGQAGSAAPAPKGRRSPSPGSSPSGRSVKPESPGVRRKRVSPVPFQSGRITPPRRAPSPDGFSPYSPEETSRRVNKVMRARLYLLQQIGPNSFLIGGDSPDNKYRVFIGPQNCSCGRGAFCIHLLFVMLRVFQLEPSDPMLWRKTLKNFEVESLFQKYHSRRSSRIKAPSRNTIQKFVSRMSNSHTLSSSSTSTSSSENSIKDEEEQMCPICLLGMLDEESLTVCEDGCRNKLHHHCMSIWAEECRRNREPLICPLCRSKWRSHDFYSHELSSPVESPASLRAVQQPSSPQQPVAGSQRRNQESSFNLTHFGTQQIPSAYKDLAEPWIQVFGMELVGCLFSRNWNVREMALRRLSHDVSGALLLANGESTGNSGGGSGGSLSAGAASGSSQPSISGDVVEACCSVLSIVCADPVYKVYVAALKTLRAMLVYTPCHSLAERIKLQRLLRPVVDTILVKCADANSRTSQLSISTVLELCKGQAGELAVGREILKAGSIGVGGVDYVLSCILGNQAESNNWQELLGRLCLIDRLLLEFPAEFYPHIVSTDVSQAEPVEIRYKKLLSLLTFALQSIDNSHSMVGKLSRRIYLSSARMVTAVPAVFSKLVTMLNASGSTHFTRMRRRLMAIADEVEIAEVIQLGVEDTVDGHQDSLQAVAPTSCLENSSLEHTVHREKTGKGLSATRLSASSEDISDRLAGVSVGLPSSTTTEQPKPAVQTKGRPHSQCLNSSPLSHAQLMFPAPSAPCSSAPSVPDISKHRPQAFVPCKIPSASPQTQRKFSLQFQRNCSEHRDSDQLSPVFTQSRPPPSSNIHRPKPSRPVPGSTSKLGDATKSSMTLDLGSASRCDDSFGGGGNSGNAVIPSDETVFTPVEDKCRLDVNTELNSSIEDLLEASMPSSDTTVTFKSEVAVLSPEKAENDDTYKDDVNHNQKCKEKMEAEEEEALAIAMAMSASQDALPIVPQLQVENGEDIIIIQQDTPETLPGHTKAKQPYREDAEWLKGQQIGLGAFSSCYQAQDVGTGTLMAVKQVTYVRNTSSEQEEVVEALREEIRMMGHLNHPNIIRMLGATCEKSNYNLFIEWMAGGSVAHLLSKYGAFKESVVINYTEQLLRGLSYLHENQIIHRDVKGANLLIDSTGQRLRIADFGAAARLASKGTGAGEFQGQLLGTIAFMAPEVLRGQQYGRSCDVWSVGCAIIEMACAKPPWNAEKHSNHLALIFKIASATTAPSIPSHLSPGLRDVAVRCLELQPQDRPPSRELLKHPVFRTTW
modifications: phosphoserine at 393
On to B1, for which the binding result in experiment [1] is given as “binds”.

B2: 14-3-3 gamma protein (protein, UniProt P61982 1-247)
chain: MVDREQLVQKARLAEQAERYDDMAAAMKNVTELNEPLSNEERNLLSVAYKNVVGARRSSWRVISSIEQKTSADGNEKKIEMVRAYREKIEKELEAVCQDVLSLLDNYLIKNCSETQYESKVFYLKMKGDYYRYLAEVATGEKRATVVESSEKAYSEAHEISKEHMQPTHPIRLGLALNYSVFYYEIQNAPEQACHLAKTAFDDAIAELDTLNEDSYKDSTLIMQLLRDNLTLWTSDQQDDDGGEGNN
Regarding B2, the binding entry in experiment [2] and in experiment [3] was “binds” each time.

B3: p120 protein (CTNND1) (protein, UniProt P30999 1-938)
chain: MDDSEVESTASILASVKEQEAQFEKLTRALEEERRHVSAQLERVRVSPQDANSLMANGTLTRRHQNGRFVGDADLERQKFSDLKLNGPQDHNHLLYSTIPRMQEPGQIVETYTEEDPEGAMSVVSVETTDDGTTRRTETTVKKVVKTMTTRTVQPVPMGPDGLPVDASAVSNNYIQTLGRDFRKNGNGGPGPYVGQAGTATLPRNFHYPPDGYGRHYEDGYPGGSDNYGSLSRVTRIEERYRPSMEGYRAPSRQDVYGPQPQVRVGGSSVDLHRFHPEPYGLEDDQRSMGYDDLDYGMMSDYGTARRTGTPSDPRRRLRSYEDMIGEEVPPDQYYWAPLAQHERGSLASLDSLRKGMPPPSNWRQPELPEVIAMLGFRLDAVKSNAAAYLQHLCYRNDKVKTDVRKLKGIPILVGLLDHPKKEVHLGACGALKNISFGRDQDNKIAIKNCDGVPALVRLLRKARDMDLTEVITGTLWNLSSHDSIKMEIVDHALHALTDEVIIPHSGWEREPNEDCKPRHIEWESVLTNTAGCLRNVSSERSEARRKLRECDGLVDALIFIVQAEIGQKDSDSKLVENCVCLLRNLSYQVHREIPQAERYQEALPTVANSTGPHAASCFGAKKGKDEWFSRGKKPTEDPANDTVDFPKRTSPARGYELLFQPEVVRIYISLLKESKTPAILEASAGAIQNLCAGRWTYGRYIRSALRQEKALSAIAELLTSEHERVVKAASGALRNLAVDARNKELIGKHAIPNLVKNLPGGQQNSSWNFSEDTVVSILNTINEVIAENLEAAKKLRETQGIEKLVLINKSGNRSEKEVRAAALVLQTIWGYKELRKPLEKEGWKKSDFQVNLNNASRSQSSHSYDDSTLPLIDRNQKSDKKPDREEIPMSNMGSNTKSLDNNYSTLNERGDHNRTLDRSGDLGDMEPLKGAPLMQKI
As to B3, the binding result in experiment [2] and in experiment [3] was “binds” each time.
